Laboratory results as given in PubChem BioAssay AID1487 (National Center for Advancing Translational Sciences (NCATS), 2009).
Several values for one entry are separate records, joined by “and”; a condition that tells them apart may be missing. Identical values can stand only once. The list shows a part of the results. Shown are side measurements of this screen, not its main read-out; they come without a call. Most of these compounds were active or inconclusive in the main read-out, so they are no random draw. Words in brackets tell the shape of the fitted curve; partial curves, single points and poor fits give uncertain potencies.

Experiment: qHTS Assay for Modulators of Lamin A Splicing
Conditions: HeLa LMNA splicing GFP/RFP minigene ratio, 48 h
Summary of the method: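 S3 HeLa cells stably expressing lamin A-EGFP splicing minigene plus DsRed2, 600 cells/well, 48 h compound exposure at 37C. Laser-scanning cytometry; analysed as GFP (500-530 nm)/RFP (575-640 nm) total intensity ratio; 0.5% DMSO vehicle.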

[1] = measured here: GFP splicing reporter channel
[2] = measured here: RFP viability control channel

Compound	AC50 [1]	AC50 [2]
COc1ccc(-c2ccc(NS(=O)(=O)c3cccc(Cl)c3)cc2)nn1	31.6 µM [falling, partial curve, poor fit]	
CCc1ccc2c(c1)C(=O)c1ccccc1C2=O	35.5 µM [rising, single point]	25.1 µM [rising, single point]
Cc1[nH]n(-c2ccc(Cl)cc2)c(=O)c1C=NC12CN3CN(CN(C3)C1)C2		0.0562 µM [rising, full curve, poor fit]
Cn1cc(/C=N/Nc2ccccc2)c2ccccc21		17.8 µM [rising, single point]
CCCN1CCCC[C@H]1C(=O)Nc1c(C)cccc1C	3.98 µM [falling, partial curve, poor fit]	2.51 µM [falling, partial curve, poor fit]
Cc1ccc(-n2ncc3c(N(CCO)Cc4ccccc4)ncnc32)cc1	12.6 µM [rising, single point]	
COc1cc(C(=O)NCc2ccc(OCCN(C)C)cc2)cc(OC)c1OC	0.0708 µM [falling, full curve]	0.0562 µM [falling, full curve]
Cc1ccc(NC(=O)C2(N3CCC3=O)CCCCC2)cc1	0.0316 µM [rising, full curve, poor fit]	
Cc1ccc(C(CC(=O)O)Nc2nc(N3CCOCC3)nc(N3CCOCC3)n2)cc1 (centres undefined)		10 µM [rising, single point]
Cc1ccc(CSCCNC(=O)c2ccccc2)cc1	25.1 µM [rising, single point]	35.5 µM [rising, single point]
O=C(Cc1csc2nc(-c3ccccc3)cn12)NCc1ccc(F)cc1	3.98 µM [falling, full curve, poor fit]	
CCCn1c(N2CCC(Cc3ccccc3)CC2)nc2c1c(=O)[nH]c(=O)n2C	10 µM [rising, partial curve]	
CCOC(=O)c1c(S(=O)(=O)N2CCCC(C(=O)Nc3ncccc3C)C2)c(C)n(C)c1C (centres undefined)	0.00316 µM [falling, full curve, poor fit]	0.00316 µM [falling, full curve, poor fit]
COc1ccc(NC(=O)[C@@H](NC(N)=O)C(C)C)cc1Cl	3.16 µM [rising, partial curve]	
Cc1ccc(NC(=O)CCc2c(C)nn(-c3ccc(N4CCOCC4)nn3)c2C)cc1F		5.62 µM [falling, partial curve, poor fit]
CCn1c(-c2cc(-c3ccc(C)cc3)nc3ccccc23)n[nH]c1=S		35.5 µM [rising, single point]
Cc1nc(N)sc1C(=O)N/N=C/c1ccco1	0.158 µM [rising, full curve, poor fit]	0.0794 µM [rising, partial curve, poor fit]
COc1cccc(-c2ccc3ncnc(NCc4ccccc4OC)c3c2)c1	12.6 µM [falling, partial curve]	17.8 µM [falling, single point]

Compound	AC50 [1]	AC50 [2]
O=C1c2ccccc2NC(c2ccc(-c3cccc(Cl)c3)o2)N1O (centres undefined)		35.5 µM [rising, single point]
Cc1ccc(S(=O)(=O)N[C@@H](Cc2ccccc2)C(=O)CCl)cc1	2.82 µM [falling, full curve]	7.08 µM [falling, partial curve] and 2.82 µM [falling, full curve]
Cn1cccc1/C=C1\SC(=S)N(NC(=O)c2ccccc2)C1=O		22.4 µM [rising, partial curve]
CCCOC(=O)CN1C(=O)c2ccc(C(=O)OCCC)cc2C1=O		0.794 µM [falling, single point]
CCCCN(C)CCNC(=O)Cn1ncc2c([nH]c3ccccc32)c1=O		31.6 µM [rising, partial curve, poor fit]
COc1ccc(NC(=O)c2csc(Cc3ccccc3)n2)cc1		17.8 µM [rising, partial curve]
O=C(Nc1cnc2sc3c(n2c1=O)CCCC3)c1ccc(F)cc1	15.8 µM [rising, single point]	31.6 µM [rising, single point]
CC(=O)O[C@]1(C(C)=O)CCC2C3CCC4=CC(=O)CCC4(C)C3(F)C(O)CC21C (some centres undefined)		0.0126 µM [falling, full curve, poor fit]
Cc1ccc(S(=O)(=O)N2CCC(=O)N(C(COCc3cccc(Cl)c3)C(C)C)CC2)cc1 (centres undefined)	35.5 µM [rising, single point]	28.2 µM [rising, single point]
CN(C)S(=O)(=O)c1ccc(NC(=O)c2cc3ccccc3o2)cc1	35.5 µM [rising, single point]	31.6 µM [rising, single point]
Oc1nc(Nc2cccc(Cl)c2)sc1/C=C1\C=Nc2ccccc21	31.6 µM [falling, single point]	
Cc1ccc(C)c(NC(=O)Cn2nnc(C(=O)NCc3ccco3)c2N)c1		11.2 µM [rising, partial curve]
O=C(O)CCNC(=O)c1ccc(N=Nc2ccc(O)c(C(=O)O)c2)cc1	0.00794 µM [falling, full curve, poor fit]	5.62 µM [rising, partial curve, poor fit]
COc1ccc2c(c1)OC/C(=C/c1ccc(OC)c(OC)c1)C2=O	11.2 µM [falling, partial curve]	17.8 µM [falling, partial curve]
COc1ccccc1-c1nc(NCc2cccnc2)c2ccccc2n1	14.1 µM [falling, partial curve]	
Cc1cc(C)c2c(n1)nn1c(C)c(CCC(=O)NCc3ccco3)c(C)nc21		0.01 µM [rising, full curve, poor fit]
Cc1nn(C)c2c1c(C(F)(F)F)cc(=O)n2C(C)C(=O)N1CCN(c2ccccc2)CC1 (centres undefined)	0.00794 µM [falling, full curve, poor fit]	0.00891 µM [falling, full curve, poor fit]
